From PubChem BioAssay AID330 (DTP/NCI, 2004)
The list does not hold the whole screen: it gathers tests that were run many times, whatever their T/C, doses with no T/C, and many T/C values between a quarter and a half above the control. Further doses and runs are listed elsewhere. T/C: endpoint of the treated group in % of that of the vehicle group. Some entries give survivors of the animals treated and no T/C: the source files T/C as zero there, which appears to mark a toxic dose or a test without result, not a measured value. Some survivor counts are full or nearly so, which does not show that the dose was tolerated: the source hardly ever lists a survival T/C far under the control, and the zero likely stands for such cases as well. Counts of survivors are from the toxicity check (mostly the fifth day) where no day follows; animals may have died later. Schedules are NCI's codes, taken here to give the interval after Q, in days (D) or hours (H), and the number of doses after X. For survival time, this PubChem deposit counts one and a half times the control or more as active, and values a quarter to a half above the control carry no call in these data; other NCI protocols may use other cut-offs. Some T/C values carry the count of animals alive at the toxicity check (mostly the fifth day); without a count, all were alive then. Some entries hold several experiments; their values stand side by side, smallest first.

Test system: P388 leukemia ip, CD2F1 mice, survival T/C
Test: NCI In Vivo Anticancer Drug Screen. Data for tumor model P388 Leukemia (intraperitoneal) in CD2F1 (CDF1) mice
Details: T/C endpoint: median survival time, higher T/C = longer survival
[1] = dose: 100.0 mg/kg/injection, schedule: Q04DX003 (ip), vehicle: Klucel (hydroxypropylcellulose) (HPC)
[2] = dose: 100.0 mg/kg/injection, schedule: Q01DX005 (ip), vehicle: Klucel (hydroxypropylcellulose) (HPC)
[3] = dose: 200.0 mg/kg/injection, schedule: Q01DX005 (ip), vehicle: Klucel (hydroxypropylcellulose) (HPC)

Cc1cc(C(C(N)=O)c2ccccc2)ccc1N(CCCl)CCCl (configuration not stated) was tested, and the T/C (dose: 25.0 mg/kg/injection, schedule: Q04DX003 (ip), vehicle: Klucel (hydroxypropylcellulose) (HPC)) was 148 % of control, the survivor count (dose: 37.5 mg/kg/injection, schedule: Q01DX009 (ip), vehicle: other) was 6 of 6 and the T/C (dose: 50.0 mg/kg/injection, schedule: Q04DX003 (ip), vehicle: Klucel (hydroxypropylcellulose) (HPC)) was 146 % of control. For the same compound, the T/C [1] was 146 % of control, the survivor count [1] was 6 of 6 and the survivor count (dose: 200.0 mg/kg/injection, schedule: Q04DX003 (ip), vehicle: Klucel (hydroxypropylcellulose) (HPC)) was 1 of 6. For the same compound, the survivor count (dose: 400.0 mg/kg/injection, schedule: Q04DX003 (ip), vehicle: Klucel (hydroxypropylcellulose) (HPC)) was 1 of 6.

In the case of Cc1c(NC(=O)Nc2cc([N+](=O)[O-])ccc2Cl)c(=O)n(-c2ccccc2)n1C, the survivor count (dose: 240.0 mg/kg/injection, schedule: Q01DX005 (ip), vehicle: saline with Tween-80) is reported as 6 of 6.

In the case of O=C1CCC2CCCCC2N1 (configuration not stated), the survivor count (dose: 200.0 mg/kg/injection, schedule: Q01DX009 (ip), vehicle: Klucel (hydroxypropylcellulose) (HPC)) is reported as 2 of 6.

For Nc1nnn(CCCl)n1, the survivor count (dose: 400.0 mg/kg/injection, schedule: Q01DX001 (ip), vehicle: Klucel (hydroxypropylcellulose) (HPC)) was 3 of 6.

For COC(=O)NC(NC(=O)OC)C(F)(F)C(NC(=O)OC)NC(=O)OC, the survivor count (dose: 240.0 mg/kg/injection, schedule: Q01DX005 (ip), vehicle: Klucel (hydroxypropylcellulose) (HPC)) was 1 of 6.

In the case of COC1C(CO)OC(n2c3c(Cl)cccc3c3c4c(c5c6cccc(Cl)c6[nH]c5c32)C(=O)NC4=O)C(O)C1O (configuration not stated), the T/C (dose: 12.5 mg/kg/injection, schedule: Q01DX005 (ip), vehicle: distilled water + Tween-80) is reported as 135 % of control and the T/C (dose: 25.0 mg/kg/injection, schedule: Q01DX005 (ip), vehicle: distilled water + Tween-80) is reported as 141 % of control.

C/C(=N\NC(=S)N1CCCCCC1)c1cc2ccccc2cn1 was tested, and the survivor count (dose: 50.0 mg/kg/injection, schedule: Q01DX005 (ip), vehicle: Klucel (hydroxypropylcellulose) (HPC)) was 6 of 6, the survivor count [2] was 6 of 6 and the survivor count [3] was 5 of 6.

In the case of CN1CCC(CNc2ccccc2)CC1, the survivor count (dose: 30.0 mg/kg/injection, schedule: Q01DX005 (ip), vehicle: saline) is reported as 0 of 6, the survivor count (dose: 60.0 mg/kg/injection, schedule: Q01DX005 (ip), vehicle: saline) is reported as 0 of 6 and the survivor count (dose: 120.0 mg/kg/injection, schedule: Q01DX005 (ip), vehicle: saline) is reported as 0 of 6. The survivor count (dose: 240.0 mg/kg/injection, schedule: Q01DX005 (ip), vehicle: saline) was 0 of 6.

For CN(C)c1ncnc2c1ncn2C1CCCCO1 (configuration not stated), the survivor count [2] was 2 of 5 and the survivor count [3] was 2 of 5.

CCCOc1cc2c(cc1C(C)c1ccc(OC)cc1)OCO2 (configuration not stated) was tested, and the T/C (dose: 50.0 mg/kg/injection, schedule: Q01DX005 (ip), vehicle: distilled water + alcohol) was 92 [4 of 5 alive], 97, 100, 104 % of control, the T/C (dose: 100.0 mg/kg/injection, schedule: Q01DX005 (ip), vehicle: distilled water + alcohol) was 100, 101, 104, 106 % of control and the T/C (dose: 200.0 mg/kg/injection, schedule: Q01DX005 (ip), vehicle: distilled water + alcohol) was 104, 109, 111, 121 % of control. For the same compound, the T/C (dose: 400.0 mg/kg/injection, schedule: Q01DX005 (ip), vehicle: distilled water + alcohol) was 130 % of control.

In the case of Cn1c(=O)c2c(nc(CF)n2C)n(C)c1=O, the survivor count (dose: 400.0 mg/kg/injection, schedule: Q01DX001 (ip), vehicle: saline) is reported as 0 of 6.
